# Experimental data published in PubChem BioAssay AID588590 (National Center for Advancing Translational Sciences (NCATS), 2011).
# Amino acid sequences for entries named in this document (tags omitted). A change or cut given only in a name is not applied to a line headed by its entry.
# UniProt Q9UNA4: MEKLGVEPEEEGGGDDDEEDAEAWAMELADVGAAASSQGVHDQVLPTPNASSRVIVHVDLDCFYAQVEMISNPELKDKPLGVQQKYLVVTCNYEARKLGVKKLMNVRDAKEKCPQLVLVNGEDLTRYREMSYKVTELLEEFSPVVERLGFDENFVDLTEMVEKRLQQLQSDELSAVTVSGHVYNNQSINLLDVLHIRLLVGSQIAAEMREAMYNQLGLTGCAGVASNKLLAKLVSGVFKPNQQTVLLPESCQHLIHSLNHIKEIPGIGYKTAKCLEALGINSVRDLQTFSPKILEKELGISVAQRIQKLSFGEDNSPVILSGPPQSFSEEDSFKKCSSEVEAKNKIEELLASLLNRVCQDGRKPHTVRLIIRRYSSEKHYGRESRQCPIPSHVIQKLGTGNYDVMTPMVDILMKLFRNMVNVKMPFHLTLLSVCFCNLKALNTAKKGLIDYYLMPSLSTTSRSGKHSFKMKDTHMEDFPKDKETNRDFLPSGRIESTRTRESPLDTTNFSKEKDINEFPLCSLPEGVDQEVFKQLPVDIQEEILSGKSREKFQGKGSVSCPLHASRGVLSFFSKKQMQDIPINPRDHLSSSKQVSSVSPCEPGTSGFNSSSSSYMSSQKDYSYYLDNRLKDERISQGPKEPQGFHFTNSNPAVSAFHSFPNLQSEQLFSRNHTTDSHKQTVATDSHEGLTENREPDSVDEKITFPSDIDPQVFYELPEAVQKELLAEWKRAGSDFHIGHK
# About 4,000 (1%) of roughly 390,000 compounds were called active. Inconclusive means that the source gave no clear call. Such entries were picked first, then a sample of the others. Calls come from the whole dose curve; as a rule, active = well fitted inhibition curve with a large enough effect; inconclusive = small, poorly fitted or top-dose-only effect, or another doubt; inactive = no such curve, though single readings can be large or run the other way. A potency beside an inconclusive call is a rough fit, not a confirmed value.
# Molecular target: DNA polymerase iota (Homo sapiens) (UniProt Q9UNA4)
# Assay: qHTS for Inhibitors of Polymerase Iota
# Settings: Pol iota fluorescent replication assay, 10 min; series mostly up to 115 µM
# Outline: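 Fluorescent replication assay read twice, at 0 min and 10 min after adding 50 nM (final) substrate. Enzyme (10 nM) and compounds were first incubated 15 min at room temperature; enzyme-free buffer wells were negative controls.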
# Potency is the fitted concentration of half-maximal effect.
row,SMILES,Potency
1,CC(=O)c1sc2nc(CSc3nncn3C)[nH]c(=O)c2c1C,"inconclusive: 25.1 µM [inhibitor, single point]"
2,COc1ccc(NC(=O)CC2C(=O)N(c3cccc(OC)c3)C(=O)N2Cc2cccnc2)cc1 (stereo not given),inactive
3,CCn1c(C)nc2cc(C(=O)N/N=C/c3ccc(N4CCOCC4)cc3)ccc21,"inconclusive: 14.1 µM [inhibitor, full curve, poor fit]"
4,Cc1oc(-c2ccccc2Cl)nc1CS(=O)(=O)CC(=O)NC(C)CCc1ccccc1 (stereo not given),"inconclusive: 89.1 µM [inhibitor, single point]"
5,COC(=O)c1cc(O)cc(OC)c1Oc1cc(C)cc(O)c1C(=O)O,active: 12.6 µM
6,O=C(NCc1cccs1)c1cc2c(s1)-c1ccccc1OC2,"inconclusive: 5.62 µM [inhibitor, full curve, poor fit]"
7,CCOc1ccc(NC(=O)Cn2c(=O)c(CNc3ccc(OC)cc3)cc3ccc(OC)cc32)cc1,inactive
8,COc1ccc(C(=O)c2sc(Nc3ccccc3)nc2N)cc1OC,"inconclusive: 50.1 µM [inhibitor, partial curve]"
9,CN1CCc2nc3sc(C(=O)Nc4c(F)cccc4F)c(N)c3cc2C1,inactive
10,COC(=O)c1ccc2c(c1)C(=O)/C(=C/c1ccc(O)cc1)O2,"inconclusive: 17.8 µM [inhibitor, partial curve, poor fit]"
11,CCOC(=O)c1ccc(NC(=O)c2nsc3ccccc23)cc1,"inconclusive: 89.1 µM [inhibitor, single point]"
12,CN(C)c1ccc(/C=C2\C=Cc3ccccc32)cc1,"inconclusive: 89.1 µM [inhibitor, single point]"
13,CC(C)(C)c1nnc2sc(SCC(O)=C(C#N)c3nc4ccccc4[nH]3)nn2c1=O,"inconclusive: 50.1 µM [inhibitor, partial curve]"
14,CC(=O)Nc1ccc(NC(=O)CSc2nc(=O)n(Cc3ccncc3)c3c2CCC3)cc1,"inconclusive: 79.4 µM [inhibitor, partial curve]"
15,CCOc1cc(C(=O)NC)cc(OCC)c1OCC,"inconclusive: 70.8 µM [inhibitor, partial curve]"
16,COc1ccccc1NC(=O)c1cc([N+](=O)[O-])ccc1NCCN1C(=O)CCC1=O,"inconclusive: 56.2 µM [inhibitor, partial curve, poor fit]"
17,Nc1nc(SCc2nnc(SCC(=O)O)n2-c2ccccc2)nc2sc3c(c12)CCCC3,"inconclusive: 28.2 µM [inhibitor, partial curve, poor fit]"
18,Cc1oc2c(cc(NS(=O)(=O)c3ccc(F)cc3)c3ccccc32)c1C(=O)O,"inconclusive: 28.2 µM [inhibitor, single point]"
19,C[C@H]1C(=O)N(S(=O)(=O)c2ccccc2[N+](=O)[O-])[C@H]1c1ccc(-c2ccccc2)cc1,"inconclusive: 100 µM [inhibitor, single point]"
20,CCCC(=O)Nc1cccc(-c2nc3ncccc3o2)c1,"inconclusive: 89.1 µM [inhibitor, single point]"
21,COc1ccccc1NS(=O)(=O)c1cc(NC(=O)C2CCC2)ccc1N1CCCCC1,"inconclusive: 3.16 µM [inhibitor, full curve]"
22,COc1ccccc1N1CCN(C(=O)c2cnn(C(C)(C)C)c2C2CCN(C(=O)OC(C)(C)C)CC2)CC1,inactive

row,SMILES,Potency
1,CN(C)c1ccc(/C=N/NC(=S)NCc2ccccc2)cc1,inactive
2,Cc1ccccc1-c1nc(S(=O)(=O)c2ccc(Cl)cc2)c(NCCN2CCOCC2)o1,inactive
3,Cc1nnc(SCC2=C(C(=O)O)N3C(=O)C(NC(=O)c4cc(F)c(F)cc4Cl)C3SC2)s1 (stereo not given),"inconclusive: 50.1 µM [inhibitor, partial curve, poor fit]"
4,CCOC(=O)C(C)Sc1nc2c(cnn2-c2ccc(C)cc2)c(=O)[nH]1 (stereo not given),"inconclusive: 39.8 µM [inhibitor, single point]"
5,CCCc1cc(=O)oc2c(CNc3ccc(OCC)cc3)c(O)ccc12,"inconclusive: 39.8 µM [inhibitor, single point]"
6,CN(Cc1ccccc1)/[N+]([O-])=N/Oc1ccc([N+](=O)[O-])cc1[N+](=O)[O-],"inconclusive: 39.8 µM [inhibitor, single point]"
7,C=CCOc1ccccc1/C=c1\sc2nc(=O)c(C)nn2c1=O,active: 10 µM
8,O=C(Nc1cccnc1)c1cnc2ccccc2n1,inactive
9,C#Cc1ccc([C@@H]2C=C(C(=O)O)O[C@H](OCC)[C@H]2CCCO)cc1,"inconclusive: 44.7 µM [inhibitor, partial curve, poor fit]"
10,COc1ccccc1NCc1nnc2n1CCCCC2,inactive
11,COc1ccc(-c2nc(SCC(=O)Nc3ccc4c(c3)OCO4)c(-c3ccc(F)cc3)[nH]2)cc1OC,"inconclusive: 89.1 µM [inhibitor, single point]"
12,COC(=O)c1[nH]c2c(c1C)C(=O)CC(c1ccc(OC)c(OC)c1)C2 (stereo not given),inactive
13,Cc1ccc(NC(=O)N2CCC(CN3CCCCCC3)CC2)c(Cl)c1,inactive
14,COc1ccc(-c2oc(NC(=O)CSc3nncn3C)c(C#N)c2-c2ccc(OC)cc2)cc1,"inconclusive: 39.8 µM [inhibitor, single point]"
15,Cc1nc(-c2ccc(S(=O)(=O)Nc3ccc(OC(F)(F)F)cc3)cc2)co1,inactive
16,CCCCCCC[n+]1ccc(/C=C/c2c[nH]c3ccccc23)cc1,inactive
17,CCOC(=O)/C(=C\c1ccc(OC(F)F)cc1)C1=Nn2c(nnc2-c2ccc(Cl)cc2)SC1,"inconclusive: 70.8 µM [inhibitor, partial curve, poor fit]"
18,NC(=O)/C(=C/c1ccc2c(c1)OCO2)NC(=O)c1ccco1,"inconclusive: 31.6 µM [inhibitor, partial curve, poor fit]"
19,N#Cc1ccsc1NC(=O)CSc1nnc(-c2ccccc2)o1,"inconclusive: 17.8 µM [inhibitor, partial curve, poor fit]"
20,COCCOc1cc(N2C(=O)CSCC2=O)c(Cl)cc1Cl,active: 89.1 µM
21,COC(=O)c1cc2ccccc2c(-c2c(OC)c(C(=O)OC)cc3ccccc23)c1OC,"inconclusive: 31.6 µM [inhibitor, single point]"
22,Cc1ccc(F)cc1NC(=O)COC(=O)c1ccc(S(C)(=O)=O)c([N+](=O)[O-])c1,inactive

# 3 of these compounds, set out differently.
row	SMILES	Potency
14	COc1ccc(-c2oc(NC(=O)CSc3nncn3C)c(C#N)c2-c2ccc(OC)cc2)cc1	inconclusive: 39.8 µM [inhibitor, single point]
15	Cc1nc(-c2ccc(S(=O)(=O)Nc3ccc(OC(F)(F)F)cc3)cc2)co1	inactive
16	CCCCCCC[n+]1ccc(/C=C/c2c[nH]c3ccccc23)cc1	inactive

# 2 entries from above, with bars between the fields:
row | SMILES | Potency
13 | Cc1ccc(NC(=O)N2CCC(CN3CCCCCC3)CC2)c(Cl)c1 | inactive
14 | COc1ccc(-c2oc(NC(=O)CSc3nncn3C)c(C#N)c2-c2ccc(OC)cc2)cc1 | inconclusive: 39.8 µM [inhibitor, single point]

# Next part.

row,SMILES,Potency
1,Cn1nc([N+](=O)[O-])c(C(C#N)c2ccccn2)c(Cl)c1=O (stereo not given),"inconclusive: 31.6 µM [inhibitor, full curve, poor fit]"
2,C/C(N)=C(/C#N)C(=O)COC(=O)c1oc2ccccc2c1COC(C)C,inactive
3,CCOC(=O)C1=C(C)NC(=O)NC1c1ccc(NC(C)=O)cc1 (stereo not given),"inconclusive: 89.1 µM [inhibitor, single point]"
4,O=C(N/N=C/c1cccnc1)c1cc2ccccc2o1,"inconclusive: 12.6 µM [inhibitor, partial curve, poor fit]"
5,CN(CCOC(=O)c1ccco1)Cc1ccccc1,"inconclusive: 112 µM [inhibitor, partial curve, poor fit]"
6,CN(Cc1ccccc1)c1ccc(N2C(=O)CCCC2=O)cc1[N+](=O)[O-],inactive
7,CCOc1ccc(S(=O)(=O)N2CCCCC2)cc1NC(=O)CN1C(=O)NC(C)(c2ccc(C)cc2)C1=O (stereo not given),"inconclusive: 31.6 µM [inhibitor, partial curve, poor fit]"
8,Cc1ccc(NC(=O)CNc2ccccc2N2CCCC2=O)cc1S(=O)(=O)N1CCOCC1,"inconclusive: 89.1 µM [inhibitor, single point]"
9,CC1CN(S(=O)(=O)c2cn(C)c(=O)n(C)c2=O)CC(C)O1 (stereo not given),"inconclusive: 10 µM [inhibitor, partial curve, poor fit]"
10,O=C(Nc1nc2ccc(Cl)cc2s1)c1cc(=O)c2ccccc2o1,"inconclusive: 79.4 µM [inhibitor, single point]"
11,COc1ccc2ncccc2c1Cc1c(OC)ccc2ncccc12,"inconclusive: 8.91 µM [inhibitor, full curve, poor fit]"
12,CCOCCCNC(=O)CN1C(=O)c2cccc3cccc1c23,"inconclusive: 100 µM [inhibitor, partial curve, poor fit]"
13,O=C(C=Cc1cccc(Cl)c1)c1ccccc1,"inconclusive: 12.6 µM [inhibitor, full curve, poor fit]"
14,CCOC(=O)CSc1nnc(-c2ccc(S(=O)(=O)NCc3cccs3)cc2)o1,"inconclusive: 89.1 µM [inhibitor, single point]"
15,Cc1ccc(NC(=O)COc2coc(CN3CCc4ccccc43)cc2=O)cc1Cl,"inconclusive: 15.8 µM [inhibitor, partial curve, poor fit]"
16,O=C(Nc1ccc(-c2nc3ccccc3o2)c(O)c1)c1cc(-n2cnnc2)ccc1Cl,"inconclusive: 25.1 µM [inhibitor, full curve, poor fit]"
17,CN1CCc2c(sc(NC(=O)CSc3ccc(F)cc3)c2-c2nc3ccccc3s2)C1,inactive
18,COc1ccc(OCc2cc(C(=O)NC3CCOCC3)no2)c2ccccc12,"inconclusive: 25.1 µM [inhibitor, single point]"
19,Cc1ccc(NC(=O)C2CCN(S(C)(=O)=O)CC2)cc1C,"inconclusive: 112 µM [inhibitor, partial curve, poor fit]"
20,CCCSc1nc(NCc2ccco2)c2c3c(sc2n1)COC(C)(C)C3,"inconclusive: 20 µM [inhibitor, full curve, poor fit]"
21,O=C(O)c1ccc(S(=O)(=O)c2ccc3c(c2)C(=O)N(c2ccc(O)cc2)C3=O)cc1,inactive
